Reference: PubChem BioAssay AID493014 (National Center for Advancing Translational Sciences (NCATS), 2011)
Some of the results follow. The main result of the screen is listed elsewhere. These columns were measured beside it and carry no call. The list favours compounds with an active or inconclusive main result. The note in brackets gives the kind of curve behind each potency; many fits are weak.

Assay: qHTS Assay to Find Inhibitors of Chronic Active B-Cell Receptor Signaling
Conditions: ABC-DLBCL IkBa-CBG/CBR reporter, luminescence ratio (green luciferase fused to IkBa over red control in TMD8 lymphoma cells), 4 h
Procedure, shortened: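 TMD8 human ABC-DLBCL cells with doxycycline-inducible IκBα–green luciferase fusion and unfused red luciferase, in 0.5% FBS medium; compounds up to 46 uM, 4 h at 37C. Green/red luminescence ratio, filter-overlap corrected, fitted to concentration-response curves.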

[1] = measured here: CBR red luminescence, cell number
[2] = measured here: IkBa-CBG green luminescence

SMILES	AC50 [1]	AC50 [2]
COc1cc(-c2nc(-c3ccc4c(c3)-c3ccccc3S4(=O)=O)c(-c3ccccc3)[nH]2)cc(OC)c1O	1.46 µM [falling, full curve, poor fit]	
COc1cccc(NC(=O)c2ccc(NC(C)=O)cc2)c1	1.16 µM [falling, partial curve, poor fit]	
NC(=O)Nc1ccc(C(=O)OCC(=O)Nc2sccc2C(N)=O)cc1	14.6 µM [falling, partial curve, poor fit]	
NS(=O)(=O)c1cccc(NC(=O)COC(=O)c2cc([N+](=O)[O-])ccc2N2CCCC2)c1		11.6 µM [falling, partial curve, poor fit]
Cc1ccc(-n2ncc3c(NCc4ccco4)ncnc32)cc1C		4.47 µM [rising, full curve, poor fit]
CCC(CC)=NNc1cccc([N+](=O)[O-])c1	29.1 µM [rising, partial curve, poor fit]	
COC(=O)c1ccccc1S(=O)c1snnc1C (centres undefined)	8.91 µM [rising, partial curve, poor fit]	
CC[n+]1ccc(/C=C/c2ccc(N(C)C)cc2)c2ccccc21	12.6 µM [rising, partial curve]	11.2 µM [rising, partial curve, poor fit]
COc1ccc(C(=O)NCCN2CCOCC2)c(OC)c1OC	10 µM [rising, partial curve, poor fit]	
COc1ccc(-c2nc3ccccc3s2)cc1O	16.4 µM [falling, single point]	
Cc1nn(C)c(C)c1CN(C)C(=O)C1c2ccccc2Oc2ccccc21	0.0326 µM [falling, full curve, poor fit]	
CCCCn1c(=O)c(CCC(=O)OCC(=O)NCc2ccc(OC)c(OC)c2)nc2ccccc21	6.31 µM [rising, partial curve, poor fit]	
Cn1c2c(c(=O)n(C)c1=O)C1c3cc(Cl)ccc3OCC1CO2 (centres undefined)	7.31 µM [rising, single point]	
Clc1ccc(-c2csc(Nc3cccnc3)n2)cc1	0.708 µM [rising, full curve, poor fit]	
Cc1ccc(/C=C/C(=O)Nc2ccccc2C(N)=O)cc1	9.2 µM [falling, single point]	
COc1ccc2[nH]c3c(N4CCN(Cc5ccc6c(c5)OCO6)CC4)ncnc3c2c1	35.5 µM [falling, single point]	
C/C(Cn1nnc([N+](=O)[O-])n1)=N\NC(=O)c1ccc(O)cc1O	5.8 µM [falling, partial curve, poor fit]	
CCOc1cc(CNC2CCCC2)c(Cl)cc1OCC(=O)Nc1ccccc1	15.8 µM [falling, single point]	
O=C(COc1cccc(NC(=O)c2cccs2)c1)c1ccc(F)cc1	14.6 µM [falling, partial curve, poor fit]	
COc1ccc(-c2cc(C(F)(F)F)c3c(N)c(C(=O)NCCSC)sc3n2)cc1	28.2 µM [rising, partial curve, poor fit]	
CCOC(=O)CSc1nnc(NC(=O)NC(C)C)s1	17.8 µM [falling, single point]	

SMILES	AC50 [1]	AC50 [2]
O=c1[nH]c(=S)c2c(n1-c1ccccc1)CCC2	25.9 µM [falling, partial curve, poor fit]	
COc1ccc(N2CCN(CCNC(=O)Nc3ccc(C)cc3Cl)CC2)cc1	2.82 µM [rising, partial curve, poor fit]	
Cc1ccc(NS(=O)(=O)c2ccc(-c3cnc(C4CC4)o3)cc2)c(C)c1	8.91 µM [rising, partial curve]	8.91 µM [falling, partial curve]
COc1cc(C(=O)N2CCN(S(=O)(=O)c3ccc(C)cc3C)CC2)ccc1OCC(=O)N1CCOCC1	6.51 µM [rising, single point]	
Fc1ccccc1Nc1ncnc2c1nnn2Cc1ccccc1	6.31 µM [falling, partial curve]	
O=C(N/N=C\c1ccc(F)cc1)c1csnn1	35.5 µM [falling, single point]	
CCN(Cc1ccncc1)C(=O)c1cccc(S(=O)(=O)N2CCOCC2)c1	12.6 µM [falling, partial curve, poor fit]	
C/C(=N/NC(=S)Nc1cccc(C)c1)c1cccc([N+](=O)[O-])c1	4.47 µM [falling, partial curve, poor fit]	5.62 µM [falling, single point]
COc1ccccc1N=C1SC(C(=O)Nc2ccc(F)cc2)CC(=O)N1C (centres undefined)	32.6 µM [falling, single point]	
O=C(OCC(=O)N1CCN(C(=O)c2ccco2)CC1)c1ccccc1O	1.64 µM [rising, single point]	
CCC1(CC)Cc2ccccc2C(Nc2c(C)n(C)n(-c3ccccc3)c2=O)=N1	16.4 µM [falling, partial curve, poor fit]	
Clc1cccc(/C=N/N2CCN(Cc3ccccc3)CC2)c1	7.94 µM [rising, partial curve]	
Cc1ccc(CC(=O)Nc2nc3ccccc3s2)cc1	12.6 µM [falling, single point]	12.6 µM [rising, partial curve, poor fit]
NNC(=O)c1cc(-c2ccc(O)cc2)nc2ccc(Br)cc12	3.55 µM [rising, single point]	
CCCOc1ccc(N2C(=O)CC(N(Cc3ccco3)C(=O)CC)C2=O)cc1 (centres undefined)	11.2 µM [falling, partial curve, poor fit]	
CC1(c2nnc(-c3ccc(F)cc3)o2)CC(c2ccc([N+](=O)[O-])cc2)=NO1 (centres undefined)	7.08 µM [rising, partial curve, poor fit]	
O=C(CCCN1C(=O)c2ccccc2C1=O)Nc1nccs1	20.6 µM [falling, single point]	
Cc1nn(Cc2ccc(C(=O)Nc3ccccc3F)cc2)c(C)c1Cl	22.4 µM [falling, partial curve]	
CCCCNC(=S)NC(=O)c1ccc([N+](=O)[O-])cc1	3.55 µM [rising, full curve, poor fit]	
CCOC(=O)c1ccc2nc(NC(=O)C(C)C)sc2c1	16.4 µM [falling, single point]	
N#CC1=C(S)N(c2ccc(F)cc2)C(c2ccco2)NC1=O (centres undefined)	5.62 µM [rising, single point]	35.5 µM [falling, partial curve, poor fit]

SMILES	AC50 [1]	AC50 [2]
O=Cc1nc(-c2ccc(Cl)cc2)n2ccccc12	0.206 µM [rising, full curve, poor fit]	
COc1ccc(Cl)cc1NC(=O)CN(C)C(=O)c1sccc1-c1ccccc1	29.1 µM [falling, single point]	
O=C(NCc1ccco1)C1CCCN(S(=O)(=O)c2cccc3cccnc23)C1 (centres undefined)	12.6 µM [falling, single point]	
Cc1ccsc1/C=N\NC(=O)c1n[nH]c2c1CCC2	9.2 µM [falling, partial curve]	
CC(C)C(=O)N1CCN(c2ccccc2NC(=O)c2ccco2)CC1	35.5 µM [falling, single point]	
COC(=O)[C@]1(Cc2ccccc2)N[C@H](c2ccc(-c3cccc(Cl)c3)cc2)[C@@H]2C(=O)N(C)C(=O)[C@@H]21	25.9 µM [falling, partial curve, poor fit]	
COc1cccc(NC(=O)Nc2nnc(Cc3ccccc3F)s2)c1	12.6 µM [rising, single point]	
Cc1nc(-c2cccc(NC(=O)Cc3ccccc3)c2)cs1	25.1 µM [falling, single point]	
O=C(OCCN1CCCC1)C1(c2ccccc2)CCCC1	2.82 µM [falling, single point]	
CCC/C(C#Cc1ccsc1)=C1/c2ccccc2C(=O)N1c1ccccc1	20.6 µM [falling, partial curve]	
CC(=O)C(Cc1ccccc1)NC(=O)CN1c2cccc3cccc(c23)S1(=O)=O (centres undefined)	32.6 µM [rising, partial curve, poor fit]	
COc1cccc(NC(=O)c2ccc(S(=O)(=O)N3CCCC3)cc2)c1	8.91 µM [falling, partial curve, poor fit]	
S=C(Nc1ccc(Cl)c(Cl)c1)NC1CCCCC1	2.06 µM [rising, partial curve]	32.6 µM [rising, partial curve, poor fit]
Cc1ccc(-c2nn(-c3ccccc3)cc2C(=O)N2CCOCC2)cc1	8.91 µM [rising, partial curve]	
CN(C)c1ccc(N=C/C=C2\N(C)c3ccccc3C2(C)C)cc1	0.708 µM [falling, full curve]	
C=CCn1c(CNc2ccccc2)nnc1SCC(=O)N/N=C/c1ccc(O)cc1O	7.94 µM [falling, partial curve]	
COC(=O)c1ccc(C(=O)OC)c(=O)[nH]1	3.98 µM [falling, single point]	6.31 µM [rising, single point]
Cc1c(-c2ccccc2)nc(N)c(C#N)c1-c1cccnc1	0.794 µM [falling, full curve]	
COc1cc2c(cc1O)C(SC)=NC(C)(C)C2	23.1 µM [rising, single point]	20.6 µM [falling, single point]

Single entries from the results shown.
`COC(=O)[C@]1(Cc2ccccc2)N[C@H](c2ccc(-c3cccc(Cl)c3)cc2)[C@@H]2C(=O)N(C)C(=O)[C@@H]21` | AC50 [1]: 25.9 µM [falling, partial curve, poor fit]
`Cc1c(-c2ccccc2)nc(N)c(C#N)c1-c1cccnc1` | AC50 [1]: 0.794 µM [falling, full curve]
`C=CCn1c(CNc2ccccc2)nnc1SCC(=O)N/N=C/c1ccc(O)cc1O` | AC50 [1]: 7.94 µM [falling, partial curve]
`COc1cccc(NC(=O)c2ccc(S(=O)(=O)N3CCCC3)cc2)c1` | AC50 [1]: 8.91 µM [falling, partial curve, poor fit]
